Assay results from PubChem BioAssay AID540256 (National Center for Advancing Translational Sciences (NCATS), 2011).
About 3,700 (1.2%) of roughly 300,000 compounds were called active. Inconclusive results, whose numbers are uncertain, are shown with a selection of clear calls. Calls come from the whole dose curve; tested in HEK293 cells. Potencies beside an inconclusive call are fits to weak or partial responses and may not hold up.
Potency is the fitted concentration of half-maximal effect.

Assay: qHTS for Inhibitors of binding or entry into cells for Lassa Virus; note: nearly all actives have a fitted effect of over 50% in size
Conditions: Lassa virus pseudotype entry inhibition, cell reporter; series mostly up to 37.9 µM
In the case of `Cc1c(OC(=O)N(C)C)ccc2c1O/C(=C\c1ccco1)C2=O`, the Potency is reported as “inactive”. In the case of `Cc1onc(-c2ccccc2)c1C(=O)OCC(=O)Nc1cc(S(=O)(=O)N2CCOCC2)ccc1Cl`, the Potency is reported as inconclusive: 14.1 µM [inhibitor, single point]. For `Nc1[nH]c2cc([N+](=O)[O-])ccc2c1-c1ccccn1`, the Potency was “inactive”. In the case of `COC(=O)c1cc(S(=O)(=O)N2CCN(Cc3ccccc3)CC2)c[nH]1`, the Potency is reported as inconclusive: 3.16 µM [inhibitor, full curve]. With `O=C1C2C3c4ccccc4C(c4ccccc43)C2C(=O)N1c1cccc2cccnc12` (centres undefined) the Potency was inconclusive: 18.3 µM [inhibitor, single point]. For `Cc1ccc(Cl)cc1N1CCN(C(=O)c2sc3nc4n(c(=O)c3c2C)CCC4)CC1`, the Potency was “inactive”. For `Cc1ccc(NC(=O)c2ccc(CN3CCc4ccccc4C3)cc2)cc1`, the Potency was inconclusive: 35.5 µM [inhibitor, single point]. In the case of `Nc1ccc2c(c1)CC(=O)c1ccccc1S2`, the Potency is reported as inconclusive: 3.55 µM [inhibitor, partial curve, poor fit]. In the case of `Cc1csc2nc(CSc3nc4ccccc4o3)c(Br)n12`, the Potency is reported as inconclusive: 35.5 µM [inhibitor, single point]. In the case of `Cc1cc(Nc2ccccc2)n(-c2nc3ccccc3[nH]2)n1`, the Potency is reported as inconclusive: 35.5 µM [inhibitor, single point]. For `O=C(COc1ccc2ccccc2c1)N1CCNCC1`, the Potency was inconclusive: 4.47 µM [activator, full curve]. For `COc1ccc(CCNc2ncnc3c2c(-c2ccccc2)cn3-c2cccc(Cl)c2)cc1OC`, the Potency was inconclusive: 14.1 µM [inhibitor, partial curve, poor fit]. For `Cc1ccsc1/C=N/NC(=O)C1CC(=O)N(c2ccccc2)C1` (centres undefined), the Potency was “inactive”. For `COc1ccc(-n2ncc3c(N4CCN(Cc5ccccc5)CC4)ncnc32)cc1`, the Potency was inconclusive: 35.5 µM [inhibitor, single point]. In the case of `O=C(CCS(=O)(=O)c1cccc2nsnc12)NC1CCCCCC1`, the Potency is reported as “inactive”. With `NC1=NC2(CCCCC2)N(c2cccc(Cl)c2)C(N)=N1` the Potency was “inactive”. In the case of `N#Cc1ccc(COC(=O)CN2C(=O)NC3(CCCC3)C2=O)cc1`, the Potency is reported as “inactive”. For `COc1ccccc1/C=C\C(=O)NCC(=O)N/N=C/c1cccc(OC)c1O`, the Potency was inconclusive: 5.62 µM [activator, single point]. For `CCc1cc2cc(C(=O)Nc3ccc(C)cc3)sc2s1`, the Potency was inconclusive: 2.91 µM [activator, partial curve]. In the case of `CCOc1ccc(NC(=O)Cn2c(=O)n(Cc3ccccc3)c(=O)c3sc4ccccc4c32)cc1`, the Potency is reported as “inactive”. In the case of `Cc1ccc(C)c(N2CCN(C(=O)c3ccc(CS(=O)(=O)c4ccccc4C)o3)CC2)c1`, the Potency is reported as inconclusive: 25.9 µM [inhibitor, single point]. In the case of `C=C(C)COc1ccc(-c2n[nH]c(C)c2Oc2ccccc2OC)c(O)c1`, the Potency is reported as inconclusive: 15.8 µM [inhibitor, partial curve, poor fit]. With `CCOC(=O)N1CCN(C(=O)COc2ccc3oc4c(c3c2)CCCC4)CC1` the Potency was active: 10 µM. With `Cc1cc(C)cc(NC(=O)CN2C(=O)CSc3ccc(S(=O)(=O)N4CCCC4)cc32)c1` the Potency was “inactive”. In the case of `O=[N+]([O-])c1cccc(-c2cc(-c3cc(Br)ccc3O)[nH]n2)c1`, the Potency is reported as inconclusive: 7.94 µM [inhibitor, partial curve, poor fit]. In the case of `CC(C)(C)c1ccc(OCC(=O)NCc2ccco2)c(Br)c1`, the Potency is reported as “inactive”. In the case of `CSCCC(NS(=O)(=O)c1ccc(C)cc1)C(=O)N1CCN(S(=O)(=O)c2ccc(F)cc2)CC1` (centres undefined), the Potency is reported as inconclusive: 1.26 µM [inhibitor, full curve, poor fit]. For `COc1ccc(OC)c(NC(=O)c2c(NCc3ccc(C)o3)sc3c2CCCCC3)c1`, the Potency was “inactive”. In the case of `COc1cccc(NC(=O)N(Cc2cn(C)c3ccccc23)C2CCCCC2)c1`, the Potency is reported as inconclusive: 14.1 µM [inhibitor, partial curve]. In the case of `COc1ccc(NC(=O)NCc2cccn2Cc2ccc(F)cc2)cc1OC`, the Potency is reported as “inactive”. In the case of `O=C(CCC1CCCN(C(=O)c2ccc3cc[nH]c3c2)C1)NCc1ccc(F)c(F)c1` (centres undefined), the Potency is reported as inconclusive: 35.5 µM [inhibitor, single point]. With `COc1ccc(CCN2C(=O)N(c3ccc(OC)cc3)C(=O)C2CC(=O)Nc2ccc(OC)cc2)cc1` (centres undefined) the Potency was inconclusive: 6.31 µM [inhibitor, single point]. With `COc1cc(C2C(C(=O)OC(C)C)=C(C)N=C3SCCC(=O)N32)ccc1OCc1ccccc1` (centres undefined) the Potency was “inactive”. For `CCN(CC)Cc1nc2c(c(=O)[nH]1)C1(CCCCC1)Cc1ccccc1-2`, the Potency was inconclusive: 20.6 µM [inhibitor, single point]. In the case of `CC(=O)NCCC(=O)Nc1nc2ccc(Oc3ccccc3)cc2s1`, the Potency is reported as inconclusive: 35.5 µM [inhibitor, single point]. In the case of `Cc1cccc(OCCn2c(-c3ccco3)nc3ccccc32)c1`, the Potency is reported as “inactive”. In the case of `COc1ccc(S(=O)(=O)NC2(C(F)(F)F)NC(=O)N(CCc3ccc(OC)c(OC)c3)C2=O)cc1` (centres undefined), the Potency is reported as inconclusive: 6.31 µM [activator, single point]. With `CS(=O)(=O)NCCc1csc2nc(-c3ccccc3)nn12` the Potency was “inactive”. For `O=c1oc(-c2ccco2)nc2c1cnn2-c1ccccc1`, the Potency was inconclusive: 35.5 µM [inhibitor, partial curve, poor fit]. In the case of `COc1ccc(N2C(=O)CSC23C(=O)N(CC(=O)NCc2ccccc2)c2ccccc23)cc1` (centres undefined), the Potency is reported as “inactive”. With `COc1ccc(NC(=O)CC(C)c2ccccc2)c([N+](=O)[O-])c1` (centres undefined) the Potency was inconclusive: 2 µM [inhibitor, partial curve, poor fit]. For `Cc1ccc(-n2nc3ccc(NC(=O)C(C)C)cc3n2)cc1`, the Potency was inconclusive: 1.83 µM [activator, full curve, poor fit]. In the case of `O=C(CSc1nc(=O)n2ccccc2n1)NCc1ccccc1`, the Potency is reported as “inactive”. For `CCN1CCN(c2ccc(S(=O)(=O)N3CCOCC3)cc2NC(=O)c2ccc(C(F)(F)F)cc2)CC1`, the Potency was inconclusive: 7.94 µM [inhibitor, partial curve, poor fit]. In the case of `CSc1ccc(/C=C/c2ccc3cccc(O)c3n2)cc1`, the Potency is reported as inconclusive: 35.5 µM [inhibitor, single point]. In the case of `COc1ccc(-n2c(O)c(C(C)=NCC3CCCO3)c(=O)[nH]c2=O)cc1` (centres undefined), the Potency is reported as inconclusive: 7.08 µM [inhibitor, partial curve]. For `COc1ccc2nc(C)cc(N/N=C/c3ccccc3)c2c1`, the Potency was inconclusive: 22.4 µM [inhibitor, single point]. For `Cc1nnc(SCC(=O)NC2CCCc3ccccc32)n1-c1ccccc1` (centres undefined), the Potency was inconclusive: 22.4 µM [activator, single point]. With `COC(=O)c1cc(NS(=O)(=O)c2ccc(NC(C)=O)cc2)ccc1Cl` the Potency was “inactive”. For `CCN(CC)S(=O)(=O)c1ccc(N2CCOCC2)c(NC(=O)c2cccc3ccccc23)c1`, the Potency was inconclusive: 28.2 µM [inhibitor, single point]. For `CSc1ccc(/C=N/Nc2cccc(C(=O)O)c2)cc1`, the Potency was active: 0.891 µM. For `CNC(=O)OC(C)CNS(=O)(=O)c1ccc(C)cc1` (centres undefined), the Potency was inconclusive: 20.6 µM [inhibitor, single point]. For `O=C(NC1CCOc2ccccc21)c1ccccn1` (centres undefined), the Potency was “inactive”. For `CCS(=O)(=O)N1CCC(C(=O)NCc2ccccc2OC)CC1`, the Potency was inconclusive: 0.13 µM [inhibitor, full curve, poor fit]. In the case of `O=[N+]([O-])c1ccc(CN2CCOCCOCCN(Cc3ccc([N+](=O)[O-])cc3)CCOCC2)cc1`, the Potency is reported as inconclusive: 35.5 µM [inhibitor, single point]. For `O=C(CC1c2ccccc2Oc2ccccc21)Nc1ccccc1F`, the Potency was inconclusive: 0.891 µM [inhibitor, single point]. With `COC(=O)c1cnc(NNC(=O)c2ccc([N+](=O)[O-])cc2)nc1C(F)(F)F` the Potency was inconclusive: 0.501 µM [activator, full curve, poor fit]. In the case of `CC(C)(C)CC(C)(C)NC(=O)c1ccccc1`, the Potency is reported as inconclusive: 11.2 µM [activator, partial curve, poor fit]. With `O=C(Cn1cc(S(=O)(=O)N2CCN(c3ccccc3F)CC2)c2ccccc2c1=O)Nc1cccc(C(F)(F)F)c1` the Potency was “inactive”. For `Cc1ccccc1CNC(=O)CCCn1c(=O)c2cccn2c2ccccc21`, the Potency was “inactive”. With `Cc1ccc(-c2nc3sc4c(c3c(=O)n2N)CCCC4)cc1` the Potency was inconclusive: 16.4 µM [inhibitor, single point]. In the case of `N#Cc1ccccc1NC(=O)C1CC(=O)N(c2ccc3c4c(cccc24)CC3)C1` (centres undefined), the Potency is reported as inconclusive: 2.82 µM [inhibitor, partial curve, poor fit]. In the case of `COc1ccc(C(=O)Nc2ccc3c(c2)N(C2CCCC2)C(=O)c2ccccc2S3)cc1OC`, the Potency is reported as active: 1.26 µM. With `CCOc1cccc(CC(=O)N2CCc3c([nH]c4ccccc34)C2c2ccc(C)cc2)c1OCC` (centres undefined) the Potency was inconclusive: 14.1 µM [inhibitor, partial curve, poor fit]. In the case of `CC(C)OC(=O)CCC(=O)Nc1nc2ccccc2s1`, the Potency is reported as “inactive”. In the case of `Cc1sc(NC(=O)c2ccc(=O)n(C)n2)nc1-c1ccccc1`, the Potency is reported as inconclusive: 7.94 µM [inhibitor, partial curve]. With `Cc1ccc(-c2cc(C(F)(F)F)n3nc(C(=O)Nc4sc5c(c4C#N)CCC(C)C5)cc3n2)cc1` (centres undefined) the Potency was inconclusive: 1.12 µM [inhibitor, full curve, poor fit]. In the case of `Cc1ccc2onc(CC(=O)Nc3cc(F)ccc3F)c2c1`, the Potency is reported as “inactive”. With `Cc1nc2ccn(Cc3cccnc3)c(=O)c2cc1C(=O)NCc1ccc(Cl)cc1` the Potency was inconclusive: 3.55 µM [inhibitor, partial curve, poor fit].
